PubChem BioAssay AID1508597 | Cure First | 2020

- Assay: 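Survival screen with siRNA in ovarian cancer cells derived from patients, with or without rucaparib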 (primary screen)
- Cells: human ovarian carcinoma lines grown from tumours: OCI-P5x (papillary serous) and OCI-C5x (clear cell)
- Reagents: siRNA pool against human genes, 1.25 pmol siRNA per well
- Duration: 72 h or 96 h, depending on the cell culture
- Challenge: rucaparib 20 µM (about IC30) or vehicle, present until read-out
- Read-out: 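Luminescent ATP-based viability assay read 72 or 96 h after transfection, depending on culture, given as normalised percent viability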
- Scale: viability, normalised: higher = more viable cells remaining
- Active means: 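Active when normalised viability falls below 80 percent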
- Meaning of the calls: active = viability under 80%; inactive = viability 80% or more
The whole screen tested about 2,100 reagents; this is an unselected part. 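Calls flag viability under 80% in either arm, not effects specific to rucaparib; the reference for percent is not stated.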 Entries without a mark were called inactive. Not stated in the record: the 100% reference.

{"gene symbol":"RPS6KA5 (GeneID 9252)","rucaparib or vehicle":"Rucaparib","cell line":"OCI-C5x (clear cell)","technical replicate":"1","viability, normalised (%)":"49.8 (active)"}
{"gene symbol":"RPS6KA5 (GeneID 9252)","rucaparib or vehicle":"Rucaparib","cell line":"OCI-C5x (clear cell)","technical replicate":"2","viability, normalised (%)":"63.9 (active)"}
{"gene symbol":"RPS6KA5 (GeneID 9252)","rucaparib or vehicle":"Rucaparib","cell line":"OCI-C5x (clear cell)","technical replicate":"3","viability, normalised (%)":"47.5 (active)"}
{"gene symbol":"RPS6KA5 (GeneID 9252)","rucaparib or vehicle":"Rucaparib","cell line":"OCI-P5x (serous)","technical replicate":"1","viability, normalised (%)":91.4}
{"gene symbol":"RPS6KA5 (GeneID 9252)","rucaparib or vehicle":"Rucaparib","cell line":"OCI-P5x (serous)","technical replicate":"2","viability, normalised (%)":101}
{"gene symbol":"RPS6KA5 (GeneID 9252)","rucaparib or vehicle":"Rucaparib","cell line":"OCI-P5x (serous)","technical replicate":"3","viability, normalised (%)":"70 (active)"}
{"gene symbol":"RPS6KA5 (GeneID 9252)","rucaparib or vehicle":"Vehicle","cell line":"OCI-C5x (clear cell)","technical replicate":"1","viability, normalised (%)":"49.9 (active)"}
{"gene symbol":"RPS6KA5 (GeneID 9252)","rucaparib or vehicle":"Vehicle","cell line":"OCI-C5x (clear cell)","technical replicate":"2","viability, normalised (%)":"55.9 (active)"}
{"gene symbol":"RPS6KA5 (GeneID 9252)","rucaparib or vehicle":"Vehicle","cell line":"OCI-C5x (clear cell)","technical replicate":"3","viability, normalised (%)":"47.1 (active)"}
{"gene symbol":"RPS6KA5 (GeneID 9252)","rucaparib or vehicle":"Vehicle","cell line":"OCI-P5x (serous)","technical replicate":"1","viability, normalised (%)":"70.3 (active)"}
{"gene symbol":"RPS6KA5 (GeneID 9252)","rucaparib or vehicle":"Vehicle","cell line":"OCI-P5x (serous)","technical replicate":"2","viability, normalised (%)":"63.2 (active)"}
{"gene symbol":"RPS6KA5 (GeneID 9252)","rucaparib or vehicle":"Vehicle","cell line":"OCI-P5x (serous)","technical replicate":"3","viability, normalised (%)":"65 (active)"}
{"gene symbol":"MED6 (GeneID 10001)","rucaparib or vehicle":"Rucaparib","cell line":"OCI-C5x (clear cell)","technical replicate":"1","viability, normalised (%)":"41.4 (active)"}
{"gene symbol":"MED6 (GeneID 10001)","rucaparib or vehicle":"Rucaparib","cell line":"OCI-C5x (clear cell)","technical replicate":"2","viability, normalised (%)":"33 (active)"}
{"gene symbol":"MED6 (GeneID 10001)","rucaparib or vehicle":"Rucaparib","cell line":"OCI-C5x (clear cell)","technical replicate":"3","viability, normalised (%)":"35 (active)"}
{"gene symbol":"MED6 (GeneID 10001)","rucaparib or vehicle":"Rucaparib","cell line":"OCI-P5x (serous)","technical replicate":"1","viability, normalised (%)":"65.7 (active)"}
{"gene symbol":"MED6 (GeneID 10001)","rucaparib or vehicle":"Rucaparib","cell line":"OCI-P5x (serous)","technical replicate":"2","viability, normalised (%)":"60.3 (active)"}
{"gene symbol":"MED6 (GeneID 10001)","rucaparib or vehicle":"Rucaparib","cell line":"OCI-P5x (serous)","technical replicate":"3","viability, normalised (%)":"66.3 (active)"}
{"gene symbol":"MED6 (GeneID 10001)","rucaparib or vehicle":"Vehicle","cell line":"OCI-C5x (clear cell)","technical replicate":"1","viability, normalised (%)":"45.7 (active)"}
{"gene symbol":"MED6 (GeneID 10001)","rucaparib or vehicle":"Vehicle","cell line":"OCI-C5x (clear cell)","technical replicate":"2","viability, normalised (%)":"40.4 (active)"}
{"gene symbol":"MED6 (GeneID 10001)","rucaparib or vehicle":"Vehicle","cell line":"OCI-C5x (clear cell)","technical replicate":"3","viability, normalised (%)":"48.9 (active)"}
{"gene symbol":"MED6 (GeneID 10001)","rucaparib or vehicle":"Vehicle","cell line":"OCI-P5x (serous)","technical replicate":"1","viability, normalised (%)":"63 (active)"}
{"gene symbol":"MED6 (GeneID 10001)","rucaparib or vehicle":"Vehicle","cell line":"OCI-P5x (serous)","technical replicate":"2","viability, normalised (%)":87}
{"gene symbol":"MED6 (GeneID 10001)","rucaparib or vehicle":"Vehicle","cell line":"OCI-P5x (serous)","technical replicate":"3","viability, normalised (%)":"61.6 (active)"}
{"gene symbol":"ZGPAT (GeneID 84619)","rucaparib or vehicle":"Rucaparib","cell line":"OCI-C5x (clear cell)","technical replicate":"1","viability, normalised (%)":"66.4 (active)"}
{"gene symbol":"ZGPAT (GeneID 84619)","rucaparib or vehicle":"Rucaparib","cell line":"OCI-C5x (clear cell)","technical replicate":"2","viability, normalised (%)":81.6}
{"gene symbol":"ZGPAT (GeneID 84619)","rucaparib or vehicle":"Rucaparib","cell line":"OCI-C5x (clear cell)","technical replicate":"3","viability, normalised (%)":"61 (active)"}
{"gene symbol":"ZGPAT (GeneID 84619)","rucaparib or vehicle":"Rucaparib","cell line":"OCI-P5x (serous)","technical replicate":"1","viability, normalised (%)":"66.7 (active)"}
{"gene symbol":"ZGPAT (GeneID 84619)","rucaparib or vehicle":"Rucaparib","cell line":"OCI-P5x (serous)","technical replicate":"2","viability, normalised (%)":"71.2 (active)"}
{"gene symbol":"ZGPAT (GeneID 84619)","rucaparib or vehicle":"Rucaparib","cell line":"OCI-P5x (serous)","technical replicate":"3","viability, normalised (%)":"46.9 (active)"}
{"gene symbol":"ZGPAT (GeneID 84619)","rucaparib or vehicle":"Vehicle","cell line":"OCI-C5x (clear cell)","technical replicate":"1","viability, normalised (%)":"77.6 (active)"}
{"gene symbol":"ZGPAT (GeneID 84619)","rucaparib or vehicle":"Vehicle","cell line":"OCI-C5x (clear cell)","technical replicate":"2","viability, normalised (%)":"68.3 (active)"}
{"gene symbol":"ZGPAT (GeneID 84619)","rucaparib or vehicle":"Vehicle","cell line":"OCI-C5x (clear cell)","technical replicate":"3","viability, normalised (%)":"65.4 (active)"}
{"gene symbol":"ZGPAT (GeneID 84619)","rucaparib or vehicle":"Vehicle","cell line":"OCI-P5x (serous)","technical replicate":"1","viability, normalised (%)":"76.8 (active)"}
{"gene symbol":"ZGPAT (GeneID 84619)","rucaparib or vehicle":"Vehicle","cell line":"OCI-P5x (serous)","technical replicate":"2","viability, normalised (%)":"59 (active)"}
{"gene symbol":"ZGPAT (GeneID 84619)","rucaparib or vehicle":"Vehicle","cell line":"OCI-P5x (serous)","technical replicate":"3","viability, normalised (%)":"40.1 (active)"}
{"gene symbol":"MSH4 (GeneID 4438)","rucaparib or vehicle":"Rucaparib","cell line":"OCI-C5x (clear cell)","technical replicate":"1","viability, normalised (%)":"45.4 (active)"}
{"gene symbol":"MSH4 (GeneID 4438)","rucaparib or vehicle":"Rucaparib","cell line":"OCI-C5x (clear cell)","technical replicate":"2","viability, normalised (%)":"48 (active)"}
{"gene symbol":"MSH4 (GeneID 4438)","rucaparib or vehicle":"Rucaparib","cell line":"OCI-C5x (clear cell)","technical replicate":"3","viability, normalised (%)":"54.9 (active)"}
{"gene symbol":"MSH4 (GeneID 4438)","rucaparib or vehicle":"Rucaparib","cell line":"OCI-P5x (serous)","technical replicate":"1","viability, normalised (%)":87.8}
{"gene symbol":"MSH4 (GeneID 4438)","rucaparib or vehicle":"Rucaparib","cell line":"OCI-P5x (serous)","technical replicate":"2","viability, normalised (%)":90.4}
{"gene symbol":"MSH4 (GeneID 4438)","rucaparib or vehicle":"Rucaparib","cell line":"OCI-P5x (serous)","technical replicate":"3","viability, normalised (%)":83.9}
{"gene symbol":"MSH4 (GeneID 4438)","rucaparib or vehicle":"Vehicle","cell line":"OCI-C5x (clear cell)","technical replicate":"1","viability, normalised (%)":"44.1 (active)"}
{"gene symbol":"MSH4 (GeneID 4438)","rucaparib or vehicle":"Vehicle","cell line":"OCI-C5x (clear cell)","technical replicate":"2","viability, normalised (%)":"58.1 (active)"}
{"gene symbol":"MSH4 (GeneID 4438)","rucaparib or vehicle":"Vehicle","cell line":"OCI-C5x (clear cell)","technical replicate":"3","viability, normalised (%)":"57.8 (active)"}
{"gene symbol":"MSH4 (GeneID 4438)","rucaparib or vehicle":"Vehicle","cell line":"OCI-P5x (serous)","technical replicate":"1","viability, normalised (%)":"74.9 (active)"}
{"gene symbol":"MSH4 (GeneID 4438)","rucaparib or vehicle":"Vehicle","cell line":"OCI-P5x (serous)","technical replicate":"2","viability, normalised (%)":92}
{"gene symbol":"MSH4 (GeneID 4438)","rucaparib or vehicle":"Vehicle","cell line":"OCI-P5x (serous)","technical replicate":"3","viability, normalised (%)":81.7}

Part of the list above, reformatted:
gene symbol,rucaparib or vehicle,cell line,technical replicate,"viability, normalised (%)"
RPS6KA5 (GeneID 9252),Rucaparib,OCI-P5x (serous),1,91.4
RPS6KA5 (GeneID 9252),Rucaparib,OCI-P5x (serous),2,101
RPS6KA5 (GeneID 9252),Rucaparib,OCI-P5x (serous),3,70 (active)
RPS6KA5 (GeneID 9252),Vehicle,OCI-C5x (clear cell),1,49.9 (active)
RPS6KA5 (GeneID 9252),Vehicle,OCI-C5x (clear cell),2,55.9 (active)
